Data reported in PMC10550955.
These are yes or no findings as the source states them, for the method shown. Some entries that bind do so weakly or less than the wild type.

Biological target: T1, Mb, P68082
T1 chain: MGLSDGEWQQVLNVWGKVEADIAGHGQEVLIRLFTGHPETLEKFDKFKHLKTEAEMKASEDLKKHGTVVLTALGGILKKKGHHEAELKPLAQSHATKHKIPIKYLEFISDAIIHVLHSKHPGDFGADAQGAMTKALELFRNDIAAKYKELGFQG
Test: SPR; homotypic: protein immobilised on CM5 or CM3 chip (~800-1000 RU), the same protein injected at increasing concentrations; BIAcore T200; 20 mM sodium phosphate buffer, pH 7.4; two-state model, one-state model for α-Syn and Chymo; both purified
Conditions: remark: other sources report otherwise

B1: Mb, P68082 1-154 (protein)
chain: MGLSDGEWQQVLNVWGKVEADIAGHGQEVLIRLFTGHPETLEKFDKFKHLKTEAEMKASEDLKKHGTVVLTALGGILKKKGHHEAELKPLAQSHATKHKIPIKYLEFISDAIIHVLHSKHPGDFGADAQGAMTKALELFRNDIAAKYKELGFQG
How did the binding turn out when B1 was run?
The binding was “binds”.
